Measured values as given in US20190010493A1 (published 2019).
These are yes or no findings as the source states them, for the method shown. In cells and extracts the contact can be indirect. Some binding calls cover weakened binding; strength is not graded here. Tags and fused reporters may be left off the sequences shown.

Chains of the proteins cited; added tags and fusions are not shown. Lines headed by an entry give the natural chain unless they say otherwise; changes in a name come on top.
UniProt Q9WVC7: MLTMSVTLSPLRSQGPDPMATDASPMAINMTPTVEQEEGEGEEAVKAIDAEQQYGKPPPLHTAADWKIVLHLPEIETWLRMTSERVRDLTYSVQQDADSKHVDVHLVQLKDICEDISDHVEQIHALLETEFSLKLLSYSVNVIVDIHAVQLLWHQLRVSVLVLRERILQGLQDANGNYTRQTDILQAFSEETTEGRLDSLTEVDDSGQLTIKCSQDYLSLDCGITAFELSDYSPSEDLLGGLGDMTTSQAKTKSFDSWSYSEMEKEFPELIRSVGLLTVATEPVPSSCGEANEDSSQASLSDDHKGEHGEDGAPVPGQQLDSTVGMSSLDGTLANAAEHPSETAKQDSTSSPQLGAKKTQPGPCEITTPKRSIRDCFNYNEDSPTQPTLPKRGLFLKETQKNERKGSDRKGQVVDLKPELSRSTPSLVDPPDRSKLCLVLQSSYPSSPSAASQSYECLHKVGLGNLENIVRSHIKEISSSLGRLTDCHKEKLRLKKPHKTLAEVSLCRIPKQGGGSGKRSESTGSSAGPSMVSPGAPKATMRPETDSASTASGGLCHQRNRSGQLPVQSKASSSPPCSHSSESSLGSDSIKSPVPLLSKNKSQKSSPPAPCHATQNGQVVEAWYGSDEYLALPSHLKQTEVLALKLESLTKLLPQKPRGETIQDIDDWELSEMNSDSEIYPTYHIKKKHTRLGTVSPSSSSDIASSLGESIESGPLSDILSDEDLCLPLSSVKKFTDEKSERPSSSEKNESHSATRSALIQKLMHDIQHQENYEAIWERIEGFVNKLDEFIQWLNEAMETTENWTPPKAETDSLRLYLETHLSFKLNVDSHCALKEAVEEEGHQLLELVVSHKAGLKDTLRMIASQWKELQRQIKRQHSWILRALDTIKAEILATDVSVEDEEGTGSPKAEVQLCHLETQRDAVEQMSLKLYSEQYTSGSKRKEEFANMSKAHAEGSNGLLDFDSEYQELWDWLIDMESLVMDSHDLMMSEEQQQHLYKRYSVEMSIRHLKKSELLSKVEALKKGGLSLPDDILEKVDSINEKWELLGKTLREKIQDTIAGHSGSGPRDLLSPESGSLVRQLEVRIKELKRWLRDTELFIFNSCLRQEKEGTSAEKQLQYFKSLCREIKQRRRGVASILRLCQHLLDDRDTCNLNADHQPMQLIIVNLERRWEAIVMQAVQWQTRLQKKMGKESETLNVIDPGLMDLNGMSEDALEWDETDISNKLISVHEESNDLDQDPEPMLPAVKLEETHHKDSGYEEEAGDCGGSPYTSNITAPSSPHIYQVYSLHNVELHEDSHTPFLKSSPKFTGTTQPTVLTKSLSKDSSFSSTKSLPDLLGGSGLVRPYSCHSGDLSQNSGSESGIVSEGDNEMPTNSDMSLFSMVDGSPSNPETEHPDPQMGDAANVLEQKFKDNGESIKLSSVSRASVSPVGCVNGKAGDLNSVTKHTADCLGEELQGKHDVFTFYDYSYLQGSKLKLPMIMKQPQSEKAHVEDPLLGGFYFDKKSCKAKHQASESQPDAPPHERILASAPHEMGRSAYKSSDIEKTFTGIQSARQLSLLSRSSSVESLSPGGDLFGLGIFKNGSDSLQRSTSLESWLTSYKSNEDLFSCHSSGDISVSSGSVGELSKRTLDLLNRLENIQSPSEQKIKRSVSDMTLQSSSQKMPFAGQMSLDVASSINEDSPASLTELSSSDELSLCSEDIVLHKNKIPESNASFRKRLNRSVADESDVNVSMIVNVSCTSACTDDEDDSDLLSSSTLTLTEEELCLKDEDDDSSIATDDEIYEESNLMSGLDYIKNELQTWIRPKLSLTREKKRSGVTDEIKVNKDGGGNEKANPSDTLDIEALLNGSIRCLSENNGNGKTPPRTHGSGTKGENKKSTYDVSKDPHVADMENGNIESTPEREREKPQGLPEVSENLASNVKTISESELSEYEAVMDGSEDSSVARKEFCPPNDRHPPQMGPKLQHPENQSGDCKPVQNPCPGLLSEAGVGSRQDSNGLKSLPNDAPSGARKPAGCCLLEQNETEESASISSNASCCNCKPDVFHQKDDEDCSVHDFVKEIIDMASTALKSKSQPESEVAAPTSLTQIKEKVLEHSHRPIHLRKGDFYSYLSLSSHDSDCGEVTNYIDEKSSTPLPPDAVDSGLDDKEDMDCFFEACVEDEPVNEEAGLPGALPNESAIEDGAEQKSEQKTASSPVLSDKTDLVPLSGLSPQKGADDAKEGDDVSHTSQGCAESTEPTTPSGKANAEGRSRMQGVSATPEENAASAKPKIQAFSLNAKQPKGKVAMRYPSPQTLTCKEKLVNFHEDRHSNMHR

Biological target: full-length mAKAPβ (muscle A-kinase anchoring protein, beta alternatively-spliced form) (rat) (UniProt Q9WVC7)
Assay: co-immunoprecipitation

B1: HA-RSK3 1 to 42 (unique N-terminal domain of RSK3) (peptide, not shown: small tags and cut ends)
chain: MDLSMKKFAVRRFFSVYLRRKSRSKSSSLSRLEEEGVVKEID
  binding: binds
